Measured data: PubChem BioAssay AID686943 (Drosophila RNAi Screening Center, 2013)
In all, the deposit lists about 23,000 reagents; shown is an unselected part of those that have a named target and a result. 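Extra replicates exist only for a retested subset of genes; insulin dose and duration not given; both raised and lowered dpERK matter.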 A plus sign joins genes that one reagent is predicted to hit. Not all columns of the deposit are shown. The record does not give: the amount of reagent, the time to read-out.

Assay: 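Fly genes whose loss alters ERK activation after insulin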 (primary screen)
Cells: Drosophila S2R+ haemocyte-like cells expressing YFP-tagged ERK (Rolled)
Knock-down reagent: long dsRNA against Drosophila genes
Challenge: insulin stimulation versus unstimulated cells; dose and duration not given
Measurement: 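Antibody staining for doubly phosphorylated ERK divided by ERK-YFP signal, as plate z-scores, in insulin-treated and untreated cells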
Reading the numbers: replicate 1, z-score of dpERK with insulin: higher = more active ERK per ERK-YFP after insulin

replicate 1, z-score of dpERK with insulin, by target gene and reagent
att-ORFB + DPCoAC: DRSC15556 -0.14
CG14625: DRSC18633 0.32
CG32188: DRSC09510 1.24
Pkn (Protein kinase N): DRSC06809 -2.06; DRSC06810 0.22
CG31104: DRSC14658 0.24
CG17283: DRSC15219 0.33
snky (sneaky): DRSC09838 0.17
Ndfip (Nedd4 family interacting protein): DRSC11201 0.69
CG4619: DRSC02764 0.47
CG6304: DRSC02948 0.46
CheB42a (Chemosensory protein B 42a): DRSC22881 0.85
stan (starry night): DRSC05234 -3.24; DRSC07697 -0.05
slbo (slow border cells): DRSC04716 0.64
NdufA3 (NADH:ubiquinone oxidoreductase subunit A3): DRSC18431 -0.12
ken (ken and barbie): DRSC04696 -7.47
BCAS2: DRSC15693 -0.08
Gr61a (Gustatory receptor 61a): DRSC08358 -1
CG4988: DRSC02800 -1.81
Dgat2 (Diacylglycerol O-acyltransferase 2): DRSC06803 0.37
smg (smaug): DRSC11397 0.03
CG31600: DRSC22541 1.01
CG13029: DRSC09909 1.56
Secp43 (tRNA Selenocysteine associated protein): DRSC00454 0.87
CG8851: DRSC00718 -0.04
CG30392: DRSC22341 0.24
Ankle2: DRSC20105 1.25; DRSC20106 0.29
kek6 (kekkon 6): DRSC15299 1
CG11367: DRSC22434 0.39

7 of these entries, set out differently:
target gene,amplicon,"replicate 1, z-score of dpERK with insulin"
BCAS2,DRSC15693,-0.08
Gr61a (Gustatory receptor 61a),DRSC08358,-1
CG4988,DRSC02800,-1.81
Dgat2 (Diacylglycerol O-acyltransferase 2),DRSC06803,0.37
smg (smaug),DRSC11397,0.03
CG31600,DRSC22541,1.01
CG13029,DRSC09909,1.56

More results follow:
replicate 1, z-score of dpERK with insulin, by target gene and reagent
CG15712: DRSC06583 1.48
CG15020: DRSC08474 0.27
CG11668: DRSC14341 0.53
Rbsn-5 (Rabenosyn-5): DRSC03094 -0.48
CG42514: DRSC10428 -1.01
CG9130 + CG9133: DRSC08624 1.42; DRSC08625 -0.37; DRSC22010 -0.01
Takl1 (Tak1-like 1): DRSC13443 0.24
CG2256: DRSC18220 0.2
robo2 (roundabout 2): DRSC00377 0.87; DRSC00378 0.32; DRSC00686 0.3; DRSC00691 1.65
Gr21a (Gustatory receptor 21a): DRSC00366 2.03
Hmx (H6-like-homeobox): DRSC15307 0.85; DRSC15884 1.13; DRSC16706 -0.79; DRSC22799 -4.58
Acer (Angiotensin-converting enzyme-related): DRSC01852 0.16
CG8677: DRSC03107 0.67
yellow-e: DRSC12966 0.54; DRSC16563 -0.07
CG3690: DRSC18170 -0.06; DRSC18641 0.49
CG3652: DRSC00624 0.6
